Data as given in US20250064955A1 (priority 2021, published 2025).

Test: general procedure: solution-phase peptide synthesis; EDC/HOBt; HATU/DIEA; EDCI/HOPO/2,6-lutidine
Details: late stage modification step

Substance | step yield | crude HPLC purity (210 nm) | final HPLC purity (210 nm)
(S)-N-((3R,4S,5S)-1-((S)-2-((1R,2R)-3-((3-((S)-2-((S)-2-aminopropanamido)propanamido)phe methyl)amino)-1-methoxy-2-methyl-3-oxopropyl)pyrrolidin-1-yl)-3-methoxy-5-methyl-1-oxohe ptan-4-yl)-2-((S)-2-(dimethylamino)-3-methylbutanamido)-N,3-dimethylbutanamide 13 | 65% | – | –
(S)-N-((3R,4S,5S)-1-((S)-2-((1R,2R)-3-((3-((S)-2-((S)-2-aminopropanamido)propanamido)phe methyl)amino)-1-methoxy-2-methyl-3-oxopropyl)pyrrolidin-1-yl)-3-methoxy-5-methyl-1-oxohe ptan-4-yl)-2-((S)-2-(dimethylamino)-3-methylbutanamido)-N,3-dimethylbutanamide bis(2,2,2-t rifluoroacetate) | 61% yield | 99.9% | –
(S)-N-((3R,4S,5S)-1-((S)-2-((1R,2R)-3-((3-aminophenethyl)amino)-1-methoxy-2-methyl-3-oxo propyl)pyrrolidin-1-yl)-3-methoxy-5-methyl-1-oxoheptan-4-yl)-2-((S)-2-(dimethylamino)-3-met hylbutanamido)-N,3-dimethylbutanamide | – | – | 99.48%
(S)-N-((3R,4S,5S)-1-((S)-2-((1R,2R)-3-((3-((S)-2-((S)-2-Aminopropanamido)propanamido)phe methyl)amino)-1-methoxy-2-methyl-3-oxopropyl)pyrrolidin-1-yl)-3-methoxy-5-methyl-1-oxohe ptan-4-yl)-2-((S)-2-(dimethylamino)-3-methylbutanamido)-N,3-dimethylbutanamide 22 | 51% | – | –
